Experimental data taken from paper PMC9731449.
These are yes or no findings as the source states them, for the method shown. For part of these data: Binding seen in cells or lysates may run through a third protein. Some results given as binding are weak or reduced against the parent protein; the word gives no strength. Tags and fused reporters may be left off the sequences shown.

Key:
Settings in all cases: remark: other sources report otherwise
[1] = target: T1, PPE20 (Rv1387) with a C-terminal Strep II tag (Mycobacterium tuberculosis H37Rv), P9WI23; assay: pull-down; […] (50 mM Tris pH 8.0, 150 NaCl, 10% glycerol); […]
T1 chain: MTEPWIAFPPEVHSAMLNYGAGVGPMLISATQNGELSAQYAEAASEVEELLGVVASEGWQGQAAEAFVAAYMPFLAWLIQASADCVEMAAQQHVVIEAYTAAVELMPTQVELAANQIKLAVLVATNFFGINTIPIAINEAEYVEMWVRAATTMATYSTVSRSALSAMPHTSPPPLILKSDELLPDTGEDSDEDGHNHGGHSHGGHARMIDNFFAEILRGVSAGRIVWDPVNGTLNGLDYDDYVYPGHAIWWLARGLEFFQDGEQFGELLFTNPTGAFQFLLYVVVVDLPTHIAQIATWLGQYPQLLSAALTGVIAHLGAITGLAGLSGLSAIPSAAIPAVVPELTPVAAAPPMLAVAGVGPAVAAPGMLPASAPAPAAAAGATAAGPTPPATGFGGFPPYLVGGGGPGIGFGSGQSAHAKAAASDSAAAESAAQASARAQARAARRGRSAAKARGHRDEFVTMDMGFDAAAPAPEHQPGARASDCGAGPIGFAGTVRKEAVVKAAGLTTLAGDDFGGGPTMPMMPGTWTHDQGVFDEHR

[2] = target: T2, PE15 (Rv1386) with an N-terminal His tag (Mycobacterium tuberculosis H37Rv), P9WIH1; assay: as above
T2 chain: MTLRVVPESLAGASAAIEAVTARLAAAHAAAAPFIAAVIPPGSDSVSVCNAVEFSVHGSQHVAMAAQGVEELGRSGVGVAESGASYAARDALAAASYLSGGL

[3] = target: T2, PE15 (Rv1386) with an N-terminal His …; assay: native gel or EMSA

B1: PE15 (Rv1386) with an N-terminal His tag, P9WIH1 1-102 (protein)
chain: T2 chain
- binding [1]: binds

B2: PPE20 (Rv1387) with a C-terminal Strep II tag, P9WI23 1-539 (protein)
chain: T1 chain
- binding [2]: binds
- binding [3]: binds
